Source: PubChem BioAssay AID2685 (National Center for Advancing Translational Sciences (NCATS), 2010)
Some of the results follow. The main result of the screen is listed elsewhere. These columns were measured beside it and carry no call. Most of these compounds were active or inconclusive in the main read-out, so they are no random draw. Potencies come from curve fits of mixed quality, noted in brackets.

Test: qHTS Assay for Lipid Storage Modulators in Drosophila S3 Cells;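 as to cell number change: cells counted by Cell Tracker Red CMTPX staining in the red channel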
Conditions: BODIPY lipid droplet fluorescence, 18-24 h; for cell number change: measured here: cell count max response, cells fed with added oleic acid
Summary of the method: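 Laser-scanning cytometry quantifies lipid droplet accumulation (500–530 nm total intensity; droplet/cell object ratio) in oleic acid-fed (400 uM added) Drosophila S3 cells treated with a concentration series. 20 uM Triacsin C defined 100% inhibition.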

[1] = measured here: lipid fluorescence (Fed channel) AC50, cells fed with added oleic acid
[2] = measured here: cell number channel AC50, cells fed with added oleic acid

| Compound | cell number change [%] | AC50 [1] | AC50 [2] |
| --- | --- | --- | --- |
| Cc1nnc2n(-c3ccccc3)c(=O)c3c4c(sc3n12)COC(C)(C)C4 | 9.85 | 29.1 µM [falling, single point] | – |
| COCC(=O)Nc1ccc(OC)c(Cl)c1 | 21.5 | 0.082 µM [rising, full curve, poor fit] | – |
| O=C1OC(c2ccc(F)cc2)=N/C1=C\c1ccc(Br)o1 | -22.3 | 0.00517 µM [falling, full curve, poor fit] | – |
| O=C(Cn1c2c(c(=O)n3ncnc13)CCC2)N/N=C/c1ccc(Cl)cc1 | -1.45 | – | 0.731 µM [falling, single point] |
| Cc1nn(CC(=O)N(C)C2CCS(=O)(=O)C2)c(C)c1[N+](=O)[O-] (configuration not stated) | 7.63 | – | – |
| O=C1COCCOCCOCC(=O)NCCN1 | -57.5 | – | 29.1 µM [falling, single point] |
| O=C(Nc1cccc2c1N(C(=O)c1ccco1)CCC2)c1ccco1 | 28.6 | 20.6 µM [rising, single point] | – |
| COc1ccc(NS(=O)(=O)c2ccc(Cl)c(NC(=O)c3cccnc3Cl)c2)cc1 | 6.9 | 1.84 µM [rising, partial curve, poor fit] | 0.146 µM [rising, full curve, poor fit] |
| Cc1snc(SCC(=O)c2ccc(Cl)cc2)c1C#N | 5.28 | 29.1 µM [rising, single point] | – |
| O=C(NCc1ccccc1Br)c1cccc2c1C(=O)c1ccc(N3CCOCC3)cc1S2(=O)=O | -70.8 | – | 29.1 µM [falling, single point] |
| COc1ccc(-c2n[nH]c(=S)n2-c2ccc(Br)cc2)cc1OC | 0.265 | 29.1 µM [rising, single point] | – |
| COc1ccc(N2CCCC2)c(NC(=O)c2ccc([N+](=O)[O-])o2)c1 | – | 14.6 µM [falling, partial curve] | – |
| CC(O)CC(C(=O)NNc1ccccc1)C(=O)NNc1ccccc1 (configuration not stated) | 41 | 6.51 µM [rising, partial curve, poor fit] | 0.366 µM [rising, full curve, poor fit] |
| C#CCSc1nnc(-c2c[nH]c3ccccc23)n1C | – | 0.731 µM [rising, single point] | – |
| CC1=CN2C(=NC(=O)CC2(C)C(=O)N(CC(=O)NC2CCCC2)Cc2ccccc2)C=C1 (configuration not stated) | 21.2 | 6.51 µM [rising, single point] | – |
| Cn1c(=O)c(C(=O)CN2CCN(Cc3ccc4c(c3)OCO4)CC2)c(N)n(Cc2ccccc2)c1=O | -1.25 | 0.517 µM [falling, single point] | – |
| Cc1ccc(NC(=O)Cn2nc(C)c([N+](=O)[O-])c2C)cc1Cl | -12.4 | – | – |
| COc1ccc(S(=O)(=O)N2CCN=C2SCc2cccc(F)c2)cc1 | 12.1 | 29.1 µM [rising, single point] | – |
| CCOc1cc(CNC2CCCC2)cc(Cl)c1OCc1ccccc1 | -25 | 29.1 µM [falling, single point] | – |
| c1ccc2c(CN3CCCCC3)csc2c1 | -18.1 | 1.64 µM [falling, full curve, poor fit] | – |
| O=S(=O)(c1ccccc1)N1CCN(c2nnnn2-c2ccccc2)CC1 | 2.51 | 29.1 µM [rising, single point] | – |

| Compound | cell number change [%] | AC50 [1] | AC50 [2] |
| --- | --- | --- | --- |
| O=C(CSc1cn(CCNC(=O)c2ccc3ccccc3c2)c2ccccc12)NCc1ccco1 | 30.6 | 4.61 µM [rising, full curve] | 4.61 µM [rising, full curve, poor fit] |
| O=C(Nc1ccc2c(c1)OCO2)c1cccc(F)c1 | 6.83 | 0.164 µM [rising, full curve, poor fit] | – |
| COc1ccc(Oc2cc(C(F)(F)F)nc(N(C)C)n2)cc1 | -43.3 | – | – |
| O=C(NNC(=S)Nc1ccc(Cl)cc1Cl)c1ccc(N2CCOCC2)c([N+](=O)[O-])c1 | 1.87 | 11.6 µM [rising, single point] | – |
| O=C1CCCN1C(=O)CCC(=O)N1CCCC1=O | -20.6 | 0.92 µM [falling, full curve] | – |
| CC(C)(OC(=O)c1cccs1)c1cc2ccccc2c(=O)o1 | -5.63 | – | – |
| CC(Nc1ccc2c(c1)OCCO2)C(=O)N1CCc2ccccc21 (configuration not stated) | – | – | 0.092 µM [rising, single point] |
| COc1cc(OC)cc(-c2nnc(SCC(=O)NCc3cccs3)o2)c1 | 61.2 | 4.11 µM [rising, partial curve] | 3.66 µM [rising, full curve] |
| Cc1cc2ccccc2n2c(SCC(=O)N3CCc4ccccc4C3)nnc12 | -25.1 | 29.1 µM [falling, single point] | – |
| COC(=O)Cc1c(C)c2ccc(OCC(=O)N3CCCC(C)C3)c(C)c2oc1=O (configuration not stated) | -33.3 | 29.1 µM [falling, single point] | 32.6 µM [falling, single point] |
| Cc1ccccc1OCC(=O)NC(Cc1c[nH]c2ccccc12)C(=O)O (configuration not stated) | 20.1 | 13 µM [rising, single point] | – |
| CC(C)(C)NC(=O)COC(=O)c1cc(Br)ccc1Cl | 12.1 | 23.1 µM [rising, partial curve, poor fit] | – |
| COc1ccc(C2CC(=O)N(c3ccccc3)C3=C2C(=O)CCC3)cc1 (configuration not stated) | 17.3 | – | – |
| CC1CCCCN1c1cc(C#N)c(C#N)cc1[N+](=O)[O-] (configuration not stated) | 144 | – | – |
| COc1ccccc1C(=O)NCCC(=O)NCC1CCCO1 (configuration not stated) | 1.43 | – | – |
| CC(=O)N1CC(C)Sc2ccc(S(=O)(=O)N3CCCCC3)cc21 (configuration not stated) | 8.66 | 20.6 µM [rising, single point] | – |
| O=C(O)c1ccc(/C=N/Nc2ccc(Cl)nn2)cc1 | -3.36 | – | – |
| Cc1cccc(NS(=O)(=O)c2ccc(NS(=O)(=O)c3cccs3)cc2)c1 | -7.56 | – | – |
| CC1CCCC(NC(=O)CCn2c(=S)oc3ccccc32)C1C (configuration not stated) | – | 0.731 µM [rising, single point] | – |
| COc1ccccc1OCC(=O)Nc1nc(C)c(C)s1 | 8.4 | 29.1 µM [rising, single point] | – |
| O=C1CCc2cc(NS(=O)(=O)c3ccc(Cl)cc3)cc3c2N1CC3 | – | 0.146 µM [falling, full curve, poor fit] | – |

| Compound | cell number change [%] | AC50 [1] | AC50 [2] |
| --- | --- | --- | --- |
| COC(=O)Cn1c(=O)cnc2ccccc21 | – | 20.6 µM [falling, partial curve] | – |
| CCOc1ccc(C(C)=O)cc1N1C(=O)C2C(C1=O)C1C=CC2C12CC2 (configuration not stated) | 4.32 | – | – |
| COc1ccccc1NS(=O)(=O)c1cc(C(=O)NCC(C)(C)N2CCOCC2)ccc1C | – | 6.51 µM [falling, single point] | – |
| Cc1ccc(/C=C2/SC(=S)N(CCCC(=O)Nc3ccc(O)cc3)C2=O)cc1 | -39.8 | 20.6 µM [falling, single point] | 20.6 µM [falling, single point] |
| Cc1nn(CCOc2ccccc2)c(=O)n1-c1ccc(F)cc1 | -25.5 | 32.6 µM [falling, single point] | – |
| COc1ccc2cc(CN(CC3COCCO3)S(=O)(=O)c3c(C)cc(C)cc3C)c(=O)[nH]c2c1 (configuration not stated) | 19.1 | 29.1 µM [falling, single point] | – |
| O=C(NC(=S)NCCOCc1ccc(Cl)cc1)c1cccnc1 | -50.6 | 1.16 µM [falling, partial curve] | 29.1 µM [falling, single point] |
| Cc1ccc(C(=O)Oc2ccc(N3C(=O)CCC3=O)c(C)c2)cc1 | 136 | – | 29.1 µM [rising, partial curve] |
| COc1cc(C(=O)OCC(=O)NC2CCS(=O)(=O)C2)c([N+](=O)[O-])cc1OC (configuration not stated) | -40.3 | 0.651 µM [falling, single point] | – |
| CCc1ccc(NC(=O)CSc2nc3ccccc3c(=O)n2CCN2CCOCC2)cc1 | -4.97 | 5.17 µM [falling, single point] | – |
| COc1ccc(OCc2nnc(SCC(N)=O)n2N)cc1 | -27.7 | 23.1 µM [falling, partial curve] | 0.651 µM [falling, full curve] |
| CCn1cc(CNC(=O)c2ccc(Cl)c([N+](=O)[O-])c2)c(C)n1 | -5.81 | 20.6 µM [falling, single point] | – |
| COc1ccc(/C=N/Nc2nc3ccccc3o2)cc1OC | -22.3 | 3.26 µM [falling, full curve] | 3.26 µM [falling, full curve, poor fit] |
| Cc1cccc(C(=O)NCc2nnc(SCC(=O)NC(C)c3ccccc3)n2C)c1 (configuration not stated) | 6.08 | 0.146 µM [rising, full curve, poor fit] | 1.64 µM [rising, partial curve] |
| O=C(CCSc1ccccc1)NCc1cccnc1 | 0.549 | 6.51 µM [rising, partial curve] | – |
| COc1ccc(S(=O)(=O)N2CCOC2CNC(=O)C(=O)NCCN2CCOCC2)cc1OC (configuration not stated) | 9.73 | 0.326 µM [rising, full curve, poor fit] | – |
| Cc1ccc(NS(=O)(=O)c2ccc(C)c(C(=O)N3CCOCC3)c2)cc1 | -4.05 | – | – |
| COc1ccccc1Cn1c(CCCO)nc2ccccc21 | 25.7 | 1.16 µM [rising, partial curve] | – |
| COC(=O)N1C(=O)[C@](CC(C)C)(c2ccccc2)N1C(=O)OC | 4.49 | – | – |
| Cc1nnc(SCC(=O)c2ccc(Br)cc2)s1 | -2.55 | – | – |
| Cc1cc(C(=O)NP(=O)(N2CC(C)OC(C)C2)N2CC(C)OC(C)C2)c(C)n1C1CC1 (configuration not stated) | -17.8 | 0.259 µM [falling, full curve] | 0.0326 µM [falling, full curve, poor fit] |
